PubChem BioAssay AID1259288, Sanger Institute – 2017
Test: 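Retest with individual siRNAs genes whose loss boosts anchor drug killing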 (follow-up of hits with single siRNAs). System: HT29 human colorectal cancer cells. Knock-down reagent: single siRNA against human genes. Challenge: anchor drugs BYL719 (1 µM), cetuximab (5 µg/ml) or trametinib (10 nM), or DMSO vehicle; each drug dosed to cause only modest loss of viability on its own. Detection: 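Synergy score comparing combined siRNA and drug against siRNA alone and drug alone, and viability averaged over replicates and normalised to control pool 2 (non-targeting)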. Reading the numbers: synergy score with BYL719 and synergy score with trametinib and synergy score with cetuximab: higher = stronger combined killing than expected from each alone; viability with siRNA alone (DMSO): higher = more viable cells. Hit rule: 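Hit when synergy for any of BYL719, cetuximab and trametinib exceeds 0.10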.
The deposit covers 160 reagents; shown is a part drawn at random. 7 of all reagents (4.4%) were called active. 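Active calls arise only from BYL719 or trametinib; no cetuximab synergy went beyond 0.10; drug doses chosen to have mild effect alone.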 A number with no mark means an inactive call. Reagents against one gene are numbered here. No viability above 1 is reported: the scale is capped. No sequences are given here. Not stated in the record: the amount of reagent, the time to read-out.

The opening 2 records, to show the layout:
| synergy score with BYL719 | synergy score with trametinib | synergy score with cetuximab | viability with siRNA alone (DMSO) (fraction of control) | gene knocked down | reagent |
| --- | --- | --- | --- | --- | --- |
| -0.123 | -0.0191 | 0.0465 | 0.899 | GTF2H1 (general transcription factor IIH subunit 1) | 1 |
| -0.289 | -0.0382 | 0 | 1 | GTF2H1 (general transcription factor IIH subunit 1) | 2 |

Main list, repeating the preview:
| synergy score with BYL719 | synergy score with trametinib | synergy score with cetuximab | viability with siRNA alone (DMSO) (fraction of control) | gene knocked down | reagent |
| --- | --- | --- | --- | --- | --- |
| -0.123 | -0.0191 | 0.0465 | 0.899 | GTF2H1 (general transcription factor IIH subunit 1) | 1 |
| -0.289 | -0.0382 | 0 | 1 | GTF2H1 (general transcription factor IIH subunit 1) | 2 |
| -0.175 | -0.0697 | -0.00343 | 0.986 | GTF2H1 (general transcription factor IIH subunit 1) | 3 |
| -0.0562 | -0.042 | -0.0557 | 0.656 | GTF2H1 (general transcription factor IIH subunit 1) | 4 |
| -0.0319 | -0.0456 | 0.0309 | 0.436 | SF3B1 (splicing factor 3b subunit 1) | 1 |
| -0.0341 | -0.0578 | -0.0701 | 0.393 | SF3B1 (splicing factor 3b subunit 1) | 2 |
| 0.0132 | -0.0211 | -0.000732 | 0.451 | SF3B1 (splicing factor 3b subunit 1) | 3 |
| -0.118 | -0.118 | -0.127 | 0.266 | SF3B1 (splicing factor 3b subunit 1) | 4 |
| -0.16 | -0.0478 | -0.0381 | 0.313 | PLK1 (polo like kinase 1) | 1 |
| -0.188 | -0.0869 | -0.0812 | 0.274 | PLK1 (polo like kinase 1) | 2 |
| -0.0904 | -0.056 | -0.0595 | 0.262 | PLK1 (polo like kinase 1) | 3 |
| -0.116 | -0.0801 | -0.135 | 0.282 | PLK1 (polo like kinase 1) | 4 |
| -0.0702 | 0.0141 | -0.121 | 0.42 | CHD4 (chromodomain helicase DNA binding protein 4) | 1 |
| -0.0285 | 0.0101 | -0.00558 | 0.464 | CHD4 (chromodomain helicase DNA binding protein 4) | 2 |
| -0.0424 | -0.0316 | -0.018 | 0.599 | CHD4 (chromodomain helicase DNA binding protein 4) | 3 |
| -0.0848 | -0.0604 | -0.212 | 0.687 | CHD4 (chromodomain helicase DNA binding protein 4) | 4 |
| -0.2 | -0.0595 | -0.158 | 0.721 | PINK1 (PTEN induced kinase 1) | 1 |
| -0.0681 | 0.0192 | -0.0555 | 0.807 | PINK1 (PTEN induced kinase 1) | 2 |
| -0.0476 | -0.0496 | -0.203 | 0.59 | PINK1 (PTEN induced kinase 1) | 3 |
| -0.0617 | 0.0696 | 0.0728 | 1 | PINK1 (PTEN induced kinase 1) | 4 |
| 0.0292 | 0.0408 | -0.0519 | 0.864 | CRIM1 (cysteine rich transmembrane BMP regulator 1) | 1 |
| 0.0812 | 0.00505 | -0.045 | 0.799 | CRIM1 (cysteine rich transmembrane BMP regulator 1) | 2 |
| 0.14 (active) | 0.0543 | -0.0403 | 0.916 | CRIM1 (cysteine rich transmembrane BMP regulator 1) | 3 |
| -0.00513 | 0.0551 | 0 | 1 | CRIM1 (cysteine rich transmembrane BMP regulator 1) | 4 |
| 0.0769 | 0.0355 | -0.123 | 0.834 | CDK6 (cyclin dependent kinase 6) | 1 |
| -0.0453 | 0.0259 | -0.305 | 0.69 | CDK6 (cyclin dependent kinase 6) | 2 |
| -0.171 | 0.0165 | -0.0677 | 0.874 | CDK6 (cyclin dependent kinase 6) | 3 |
| -0.071 | 0.0522 | 0 | 1 | CDK6 (cyclin dependent kinase 6) | 4 |
| -0.184 | 0.0367 | -0.0849 | 0.753 | EPHA6 (EPH receptor A6) | 1 |
| -0.0724 | -0.0101 | -0.266 | 0.618 | EPHA6 (EPH receptor A6) | 2 |
| -0.0949 | -0.0597 | -0.165 | 0.722 | EPHA6 (EPH receptor A6) | 3 |
| -0.215 | -0.104 | -0.194 | 0.6 | EPHA6 (EPH receptor A6) | 4 |
| 0.0562 | 0.0395 | 0.0326 | 0.84 | HUNK (hormonally up-regulated Neu-associated kinase) | 1 |
| -0.0671 | -0.0517 | -0.179 | 0.677 | HUNK (hormonally up-regulated Neu-associated kinase) | 2 |
| -0.0499 | 0.047 | -0.152 | 0.848 | HUNK (hormonally up-regulated Neu-associated kinase) | 3 |
| 0.0278 | 0.029 | -0.117 | 0.849 | HUNK (hormonally up-regulated Neu-associated kinase) | 4 |
| -0.215 | -0.036 | -0.223 | 0.691 | STK36 (serine/threonine kinase 36) | 1 |
| -0.134 | -0.0398 | -0.096 | 0.781 | STK36 (serine/threonine kinase 36) | 2 |
| -0.158 | 0.0276 | -0.179 | 0.507 | STK36 (serine/threonine kinase 36) | 3 |
| -0.185 | -0.0654 | -0.18 | 0.665 | STK36 (serine/threonine kinase 36) | 4 |
| -0.00636 | -0.0214 | -0.0388 | 0.85 | PFKFB3 (6-phosphofructo-2-kinase/fructose-2,6-biphosphatase 3) | 1 |
| -0.0436 | 0.0577 | -0.122 | 0.698 | PFKFB3 (6-phosphofructo-2-kinase/fructose-2,6-biphosphatase 3) | 2 |
| -0.0867 | -0.000402 | -0.0921 | 0.908 | PFKFB3 (6-phosphofructo-2-kinase/fructose-2,6-biphosphatase 3) | 3 |
| -0.097 | 0.0323 | -0.15 | 0.85 | PFKFB3 (6-phosphofructo-2-kinase/fructose-2,6-biphosphatase 3) | 4 |
| -0.219 | -0.0927 | -0.0455 | 0.944 | ACVR1 (activin A receptor type 1) | 1 |
| 0.0328 | 0.0221 | -0.107 | 0.85 | ACVR1 (activin A receptor type 1) | 2 |
| -0.134 | -0.00194 | 0 | 1 | ACVR1 (activin A receptor type 1) | 3 |
| -0.108 | 0.0114 | 0.0019 | 1 | ACVR1 (activin A receptor type 1) | 4 |
| -0.146 | 0.00106 | -0.132 | 0.778 | IRAK3 (interleukin 1 receptor associated kinase 3) | 1 |
| -0.0877 | -0.0187 | -0.0511 | 0.915 | IRAK3 (interleukin 1 receptor associated kinase 3) | 2 |
| -0.0597 | 0.0101 | -0.0985 | 0.889 | IRAK3 (interleukin 1 receptor associated kinase 3) | 3 |
| -0.179 | -0.0957 | -0.103 | 0.897 | IRAK3 (interleukin 1 receptor associated kinase 3) | 4 |
| 0.0825 | -0.00229 | -0.0247 | 0.525 | BRAF (B-Raf proto-oncogene, serine/threonine kinase) | 1 |
| 0.0752 | 0.0401 | -0.0611 | 0.549 | BRAF (B-Raf proto-oncogene, serine/threonine kinase) | 2 |
| -0.0198 | 0.0385 | -0.035 | 0.527 | BRAF (B-Raf proto-oncogene, serine/threonine kinase) | 3 |
| 0.0134 | -0.0512 | -0.0657 | 0.538 | BRAF (B-Raf proto-oncogene, serine/threonine kinase) | 4 |
| -0.187 | 0.0662 | -0.179 | 0.685 | HSPB8 (heat shock protein family B (small) member 8) | 1 |
| -0.288 | -0.0375 | -0.0223 | 0.978 | HSPB8 (heat shock protein family B (small) member 8) | 2 |
| -0.232 | -0.118 | -0.0726 | 0.828 | HSPB8 (heat shock protein family B (small) member 8) | 3 |
| -0.321 | -0.0501 | -0.171 | 0.732 | HSPB8 (heat shock protein family B (small) member 8) | 4 |
